# Laboratory results as given in the supplement of paper PMC8728848.
# The list shows a part of the results.
# Tests used:
# Assay in all cases: glycan array binding signal (z-score within array); higher = stronger binding
# Settings in all cases: glycan notation: IUPAC condensed, linker removed; mutation: Y54A
# [1] = biological target: Gal(b1-4)GlcNAc(b1-3)Gal(b1-4)GlcNAc(b1-3)Gal(b1-4)GlcNAc(b1-3)Gal(b1-4)GlcNAc(b1-2)Man(a1-3)[Gal(b1-4)GlcNAc(b1-3)Gal(b1-4)GlcNAc(b1-3)Gal(b1-4)GlcNAc(b1-3)Gal(b1-4)GlcNAc(b1-2)Man(a1-6)]Man(b1-4)GlcNAc(b1-4)GlcNAc
# How it was run: (§1)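 Arrays were curated from the Consortium for Functional Glycomics database, 3228 in total, and kept only where the protein sequence was available. Binding is expressed as a within-array Z-score. This score was averaged across arrays of the same protein sequence at different concentrations or buffers and across linkers, and negative values can be read as non-binding.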
# [2] = biological target: Gal(b1-4)GlcNAc(b1-3)Gal(b1-4)GlcNAc(b1-3)Gal(b1-4)GlcNAc(b1-3)Gal(b1-4)GlcNAc(b1-2)Man(a1-3)[Gal(b1-4)GlcNAc(b1-3)Gal(b1-4)GlcNAc(b1-3)Gal(b1-4)GlcNAc(b1-3)Gal(b1-4)GlcNAc(b1-2)Man(a1-6)]Man(b1-4)GlcNAc(b1-4)[Fuc(a1-6)]GlcNAc
# How it was run: as §1
# [3] = biological target: Gal(b1-4)GlcNAc(b1-3)Gal(b1-4)GlcNAc(b1-3)Gal(b1-4)GlcNAc(b1-3)Gal(b1-4)GlcNAc(b1-2)[Gal(b1-4)GlcNAc(b1-3)Gal(b1-4)GlcNAc(b1-3)Gal(b1-4)GlcNAc(b1-3)Gal(b1-4)GlcNAc(b1-6)]Man(a1-6)[Gal(b1-4)GlcNAc(b1-3)Gal(b1-4)GlcNAc(b1-3)Gal(b1-4)GlcNAc(b1-3)Gal(b1-4)GlcNAc(b1-2)Man(a1-3)]Man(b1-4)GlcNAc(b1-4)[Fuc(a1-6)]GlcNAc
# How it was run: as §1
# [4] = biological target: Gal(b1-4)GlcNAc(b1-3)Gal(b1-4)GlcNAc(b1-3)Gal(b1-4)GlcNAc(b1-3)Gal(b1-4)GlcNAc(b1-3)Gal(b1-4)GlcNAc(b1-2)Man(a1-3)[Gal(b1-4)GlcNAc(b1-3)Gal(b1-4)GlcNAc(b1-3)Gal(b1-4)GlcNAc(b1-3)Gal(b1-4)GlcNAc(b1-3)Gal(b1-4)GlcNAc(b1-2)Man(a1-6)]Man(b1-4)GlcNAc(b1-4)GlcNAc
# How it was run: as §1
# [5] = biological target: Gal(b1-4)GlcNAc(b1-3)Gal(b1-4)GlcNAc(b1-3)Gal(b1-4)GlcNAc(b1-3)Gal(b1-4)GlcNAc(b1-3)Gal(b1-4)GlcNAc(b1-2)Man(a1-3)[Gal(b1-4)GlcNAc(b1-3)Gal(b1-4)GlcNAc(b1-3)Gal(b1-4)GlcNAc(b1-3)Gal(b1-4)GlcNAc(b1-3)Gal(b1-4)GlcNAc(b1-2)Man(a1-6)]Man(b1-4)GlcNAc(b1-4)[Fuc(a1-6)]GlcNAc
# How it was run: as §1
# [6] = biological target: Gal(b1-4)GlcNAc(b1-3)Gal(b1-4)GlcNAc(b1-3)Gal(b1-4)GlcNAc(b1-3)Gal(b1-4)GlcNAc(b1-3)Gal(b1-4)GlcNAc(b1-2)[Gal(b1-4)GlcNAc(b1-3)Gal(b1-4)GlcNAc(b1-3)Gal(b1-4)GlcNAc(b1-3)Gal(b1-4)GlcNAc(b1-3)Gal(b1-4)GlcNAc(b1-6)]Man(a1-6)[Gal(b1-4)GlcNAc(b1-3)Gal(b1-4)GlcNAc(b1-3)Gal(b1-4)GlcNAc(b1-3)Gal(b1-4)GlcNAc(b1-3)Gal(b1-4)GlcNAc(b1-2)Man(a1-3)]Man(b1-4)GlcNAc(b1-4)[Fuc(a1-6)]GlcNAc
# How it was run: as §1
# [7] = biological target: Gal(b1-4)GlcNAc(b1-3)Gal(b1-4)GlcNAc(b1-3)Gal(b1-4)GlcNAc(b1-3)Gal(b1-4)GlcNAc(b1-3)Gal(b1-4)GlcNAc(b1-3)Gal(b1-4)GlcNAc(b1-2)Man(a1-3)[Gal(b1-4)GlcNAc(b1-3)Gal(b1-4)GlcNAc(b1-3)Gal(b1-4)GlcNAc(b1-3)Gal(b1-4)GlcNAc(b1-3)Gal(b1-4)GlcNAc(b1-3)Gal(b1-4)GlcNAc(b1-2)Man(a1-6)]Man(b1-4)GlcNAc(b1-4)GlcNAc
# How it was run: as §1
# [8] = biological target: Gal(b1-4)GlcNAc(b1-3)Gal(b1-4)GlcNAc(b1-3)GalNAc
# How it was run: as §1
# [9] = biological target: Gal(b1-4)GlcNAc(b1-3)Gal(b1-4)GlcNAc(b1-3)[Gal(b1-4)GlcNAc(b1-3)Gal(b1-4)GlcNAc(b1-6)]GalNAc
# How it was run: as §1
# [10] = biological target: Gal(b1-4)GlcNAc(b1-3)Gal(b1-4)GlcNAc(b1-6)[Gal(b1-3)]GalNAc
# How it was run: as §1
# [11] = biological target: Gal(b1-4)GlcNAc(b1-3)Gal(b1-4)[Fuc(a1-3)]GlcNAc(b1-3)Gal(b1-4)[Fuc(a1-3)]GlcNAc
# How it was run: as §1
# [12] = biological target: Gal(b1-4)GlcNAc(b1-3)GalNAc
# How it was run: as §1
# [13] = biological target: Gal(b1-4)GlcNAc(b1-3)[Fuc(a1-3)GlcNAc(b1-6)]Gal(b1-4)Glc
# How it was run: as §1
# [14] = biological target: Gal(b1-4)GlcNAc(b1-3)[Gal(b1-4)GlcNAc(b1-6)]Gal(b1-4)GlcNAc
# How it was run: as §1
# [15] = biological target: Gal(b1-4)GlcNAc(b1-3)[GlcNAc(b1-6)]Gal(b1-4)GlcNAc
# How it was run: as §1
# [16] = biological target: Gal(b1-4)GlcNAc(b1-6)Gal(b1-4)GlcNAc
# How it was run: as §1
# [17] = biological target: Gal(b1-4)GlcNAc(b1-6)GalNAc
# How it was run: as §1
# [18] = biological target: Gal(b1-4)GlcNAc(b1-6)[Gal(b1-3)]GalNAc
# How it was run: as §1
# [19] = biological target: Gal(b1-4)GlcNAc(b1-6)[Gal(b1-4)GlcNAc(b1-3)]GalNAc
# How it was run: as §1
# Gal(b1-4)GlcNAc6P = biological target: Gal(b1-4)GlcNAc6P
# How it was run: as §1
# Gal(b1-6)Gal = biological target: Gal(b1-6)Gal
# How it was run: as §1
# Gal3S(b1-3)GalNAc = biological target: Gal3S(b1-3)GalNAc
# How it was run: as §1
# Gal3S(b1-3)GlcNAc = biological target: Gal3S(b1-3)GlcNAc
# How it was run: as §1
binder,measurement,setting,value
"CBP21 (Serratia marcescens), O83009 (protein) MNKTSRTLLSLGLLSAAMFGVSQQANAHGYVESPASRAYQCKLQLNTQCGSVQAEPQSVEGLKGFPQAGPADGHIASADKSTFFELDQQTPTRWNKLNLKTGPNSFTWKLTARHSTTSWRYFITKPNWDASQPLTRASFDLTPFCQFNDGGAIPAAQVTHQCNIPADRSGSHVILAVWDIADTANAFYQAIDVNLSK",glycan array binding signal (z-score),[1],0.181
same,glycan array binding signal (z-score),[2],-0.337
same,glycan array binding signal (z-score),[3],1
same,glycan array binding signal (z-score),[4],-0.068
same,glycan array binding signal (z-score),[5],5.09
same,glycan array binding signal (z-score),[6],1.3
same,glycan array binding signal (z-score),[7],-0.154
same,glycan array binding signal (z-score),[8],0.033
same,glycan array binding signal (z-score),[9],-0.31
same,glycan array binding signal (z-score),[10],-0.269
same,glycan array binding signal (z-score),[11],-0.165
same,glycan array binding signal (z-score),[12],-0.377
same,glycan array binding signal (z-score),[13],-0.538
same,glycan array binding signal (z-score),[14],-0.65
same,glycan array binding signal (z-score),[15],1.84
same,glycan array binding signal (z-score),[16],1.21
same,glycan array binding signal (z-score),[17],-0.908
same,glycan array binding signal (z-score),[18],-0.512
same,glycan array binding signal (z-score),[19],2.3
same,glycan array binding signal (z-score),Gal(b1-4)GlcNAc6P,-0.362
same,glycan array binding signal (z-score),Gal(b1-6)Gal,-0.809
same,glycan array binding signal (z-score),Gal3S(b1-3)GalNAc,0.536
same,glycan array binding signal (z-score),Gal3S(b1-3)GlcNAc,0.703

# In another format: results already given.
binder	measurement	setting	value
CBP21 (Serratia marcescens), O83009 (protein) MNKTSRTLLSLGLLSAAMFGVSQQANAHGYVESPASRAYQCKLQLNTQCGSVQAEPQSVEGLKGFPQAGPADGHIASADKSTFFELDQQTPTRWNKLNLKTGPNSFTWKLTARHSTTSWRYFITKPNWDASQPLTRASFDLTPFCQFNDGGAIPAAQVTHQCNIPADRSGSHVILAVWDIADTANAFYQAIDVNLSK	glycan array binding signal (z-score)	Gal(b1-4)GlcNAc6P	-0.362
same	glycan array binding signal (z-score)	Gal(b1-6)Gal	-0.809
